From publication PMC11624362
Weaker means in comparison with the reference protein, sequence or condition of that experiment.

System: DNMT3A1-DNMT3L complex (human)
Assay: EMSA
Conditions: Fragments: 15 mM HEPES pH 7.5, 75 mM NaCl, 0.05% Triton X-100, 0.05 mg/mL BSA, 10% glycerol, 1 mM DTT, 0.5 mg/mL salmon sperm DNA with nucleosomes, on ice 1 h; recombinant protein

## TGGAGAATCCCGGTGCCGAGGCCGCTCAATTGGTCGTAGACAGCTCTAGCACCGCTTAAACGCACGTACGCGCTGTCCCCCGCGTTTTAACCGCCAAGGGGATTACTCCCTAGTCTCCAGGCACGTGTCAGATATATACATCCTGTCACCATACGCCCTAATTAGAGGCGTAATCCCCCAGTTCGCGCGCCCACC (double strand) [195 bp DNA (Widom 601 + 50 bp linker)]
  binding result: binds more weakly
